# Assay results reported in the supplement of paper PMC3334620.
# The full ranking holds about 33,000 sequences; the median of “E-score (-0.5 to 0.5)” is about -0.0059, and the highest 2% start at about 0.26. Some of the results follow.
# Biological target: T1, Cin5 (UniProt P40917)
# T1 sequence: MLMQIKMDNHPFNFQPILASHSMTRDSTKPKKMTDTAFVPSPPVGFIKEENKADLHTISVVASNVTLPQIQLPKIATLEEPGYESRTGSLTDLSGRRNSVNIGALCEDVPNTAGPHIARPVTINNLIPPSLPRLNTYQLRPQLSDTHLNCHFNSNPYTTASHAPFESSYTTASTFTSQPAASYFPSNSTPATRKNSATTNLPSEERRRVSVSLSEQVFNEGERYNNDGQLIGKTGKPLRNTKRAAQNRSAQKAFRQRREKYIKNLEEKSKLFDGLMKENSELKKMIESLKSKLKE
# Test: PBM E-score (8-mer binding enrichment) (E-score (-0.5 to 0.5)); higher = stronger / more preferred TF binding
# Conditions: protein concentration: 100 nM; construct: GST-full length
# In short: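 Full-length yeast transcription factors or their DNA-binding domains, GST-tagged and expressed with PURExpress, were applied at about 100-200 nM to universal all-10-mer Agilent arrays. These arrays had been made double-stranded by primer extension on fresh or once-stripped slides. Detection used fluorescent anti-GST, normalisation used masliner, and E-scores for ungapped eight-base words pooled with reverse complements came from the Universal PBM Analysis Suite.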
row,Sequence,PBM E-score
1,ATGATACC,0.0985
2,AACGCTGC,-0.0849
3,AGGGAGAT,-0.252
4,AAGTGAAC,0.0529
5,CAAATGTG,0.146
6,ACAAAAGC,0.101
7,GTGCTCCA,-0.145
8,GCACACAA,0.117
9,AAGTGTCA,-0.1
10,GCTCGTAA,0.0314
11,ACTCGGCA,0.0653
12,GCCACTAA,-0.0361
13,AATCCAAG,0.155
14,TACCTATA,0.0396
15,TCCGGACA,0.0244
16,AAGTAAAA,0.0101
17,CCGTACCC,-0.204
18,CGCCGCCA,-0.173
19,AAAACCTA,0.113
20,GTTTAATA,0.143
21,ACTGACTA,-0.0429
22,AAGCCGAA,0.00408
23,ACCTCTAT,0.0973
24,ATGGCCTC,-0.0373
25,AACCGAGC,0.0779

row,Sequence,PBM E-score
1,AGCGAGTC,-0.127
2,AGTGCAAG,0.121
3,GAGCGCCC,-0.255
4,CACAATTC,0.192
5,TACATAAA,0.323
6,GAGAATGC,0.0997
7,ACAACGCC,0.0607
8,TCAATAGA,0.0561
9,CCCCAAGC,0.138
10,CGGCCGAG,-0.0567
11,CCTAGGGA,-0.129
12,GTGCGATA,0.0251
13,ACTATGTA,0.202
14,ATGACTTG,0.0388
15,TCCTCCAA,-0.129
16,CTGAACTC,-0.0745
17,ATGACTGC,0.0331
18,GAGTGTGC,0.0118
19,ACTCCAAT,-0.0347
20,GCGTGAAA,0.0212
21,AATACCCG,0.03
22,ATCTTCGA,0.122
23,CTGGCAAA,0.0466
24,GCCCACGA,-0.116
25,GAGTAAAA,0.0903

# No new results follow: an excerpt of the list.
row,Sequence,PBM E-score
19,ACTCCAAT,-0.0347
20,GCGTGAAA,0.0212
21,AATACCCG,0.03
22,ATCTTCGA,0.122
23,CTGGCAAA,0.0466
24,GCCCACGA,-0.116

# The list continues:

row,Sequence,PBM E-score
1,ACTAAATG,0.0519
2,CAGGAAGC,0.0437
3,GCGTGCAA,-0.123
4,AAGCTGGG,-0.015
5,AGTGCCAC,-0.0861
6,AAAACCGG,0.121
7,AGATGTCC,-0.085
8,CTAAGACC,0.0759
9,CTCCATAA,-0.17
10,AAGTGCCG,-0.161
11,GCTGGACA,-0.0762
12,AGAGCCAA,-0.115
13,TGGGACCA,-0.166
14,AAAAAACC,-0.0523
15,CTCTTCGA,-0.0303
16,CCGCGAGG,0.128
17,AGCGGACG,0.0406
18,AGTCTCCC,-0.0801
19,CGCTGAAA,-0.164
20,AGCTATAT,0.211
21,GGGCGAGA,-0.0451
22,TCAATTCA,0.0881
23,GCCTCCTA,-0.264
24,CCCTTCCC,-0.22
25,TAGCCTAA,-0.179

# 7 records drawn at random from the list so far, as already listed:
row,Sequence,PBM E-score
17,AGCGGACG,0.0406
13,TGGGACCA,-0.166
7,AGATGTCC,-0.085
18,CGCCGCCA,-0.173
1,ACTAAATG,0.0519
4,AAGTGAAC,0.0529
16,AAGTAAAA,0.0101

# (continued)

row,Sequence,PBM E-score
1,ACTGGTGC,-0.113
2,GAGGCGGC,-0.107
3,GTAGGGAC,-0.143
4,CATATGAG,0.158
5,GGCAGGAA,-0.124
6,GTACGGTA,0.0983
7,ACCAAGAC,0.00964
8,ATCCGAAA,-0.064
9,AACTCACG,-0.00371
10,TAGTGAGA,0.0693
11,CCTATACG,-0.275
12,TAGTTCAA,0.0474
13,AGTGGTCG,-0.0941
14,GGAGTCCC,-0.155
15,ATCTAACA,0.0569
16,ATGGAGCG,-0.0149
17,GGGAAGGA,-0.137
18,CGGCGGTA,0.099
19,GTTATAGA,-0.0531
20,AAAAAATG,0.197
21,CCAACGGC,-0.239
22,CGGATTAG,0.0848
23,TCCGCAAA,-0.0545
24,GCGGCTGA,0.042
25,AACGTCCA,-0.0499

row,Sequence,PBM E-score
1,AAGATCTA,-0.12
2,CCCTATAC,-0.159
3,CCCGGTGC,-0.189
4,ATTGGCGG,-0.0494
5,CGGAAGCA,0.131
6,ACCCCAAG,0.155
7,ATCGGACA,-0.0562
8,GACCTTAC,-0.101
9,CGTGAATA,0.117
10,AAGTACCC,-0.088
11,CATATATC,0.102
12,ACTCGTAA,0.234
13,CCTGTTAG,0.0713
14,ATCTGGCG,-0.0447
15,GAGGCGGA,-0.27
16,CCAACAGC,-0.0871
17,CCAGACAG,-0.153
18,TGGTGACA,0.059
19,ATCGCGAT,0.188
20,CGCTGGTC,-0.282
21,ATCTCTGG,-0.102
22,AGGTGTAA,0.149
23,CAAAGTGC,-0.0856
24,GATCCTAC,0.125
25,ACTCCCCT,-0.121

row,Sequence,PBM E-score
1,CGCCACAA,0.057
2,TCGCCACA,0.0301
3,CGTGATTC,-0.0445
4,ACGGGGGC,-0.445
5,CCTTTGAA,-0.0763
6,CATAGTAA,0.279
7,CTGTGGCA,-0.117
8,TAGATCCA,-0.00386
9,GGGGCCGA,-0.241
10,ACTATCAC,-0.0106
11,AAGGTACT,0.0255
12,AAGAAGAC,-0.00466
13,AACCCACA,0.0403
14,CCCGATCA,-0.217
15,CAGAATTC,0.0317
16,CACAGTGG,-0.111
17,GGACCGAC,-0.0152
18,GGGATAGA,-0.165
19,GATGTGCC,-0.144
20,GACCTGGC,-0.0791
21,AACATGGA,0.0225
22,AGTAACGG,0.0103
23,GGGATCAC,-0.129
24,CGGCCCTC,-0.346
25,AGGAGTAT,0.00924

row,Sequence,PBM E-score
1,CCGATAGC,-0.0986
2,AGATAGCC,-0.189
3,CGCAGACC,-0.296
4,ATCTTCTG,0.0442
5,CCCGACGC,-0.196
6,TACCCATA,0.0256
7,GCTAGCAC,-0.125
8,GGGTGTGA,-0.168
9,CCTCCGCA,-0.235
10,CATCCATA,0.0577
11,CACAGGAA,0.0493
12,GCATTGAC,-0.131
13,ACAATCGG,-0.0313
14,AACACGAC,-0.091
15,GGTGTTAC,-0.0664
16,CCACCTCA,0.0455
17,ACTTAGCA,-0.158
18,AATCTCAA,0.184
19,GAGCTTCC,0.148
20,GCTCCTCC,-0.323
21,CACCGCAA,0.0561
22,AGACAAAA,-0.0833
